Assay results taken from PubChem BioAssay AID2685 (National Center for Advancing Translational Sciences (NCATS), 2010).
This is one part of the list. Further columns of the screen follow, without active or inactive calls. Compounds called inactive in the main read-out are mostly missing here. Potencies come from curve fits of mixed quality, noted in brackets.

Test: qHTS Assay for Lipid Storage Modulators in Drosophila S3 Cells;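 as to cell number change: cells counted by Cell Tracker Red CMTPX staining in the red channel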
Details: BODIPY lipid droplet fluorescence, 18-24 h; for cell number change: measured here: cell count max response, cells fed with added oleic acid
In short: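 Drosophila S3 cells got compounds at several concentrations plus oleic acid (400 uM solution). Laser-scanning cytometry with 488 nm excitation read lipid droplets at 500-530 nm and cells at 575-640 nm. Percent activity was relative to 20 uM Triacsin C.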

[1] = measured here: lipid fluorescence (Fed channel) AC50, cells fed with added oleic acid
[2] = measured here: cell number channel AC50, cells fed with added oleic acid

Compound | cell number change [%] | AC50 [1] | AC50 [2]
COc1cc(NC(=O)COC(=O)/C=C/c2ccccc2Cl)cc(OC)c1 | -1.72 | 18400 nM [rising, single point] | –
NC(=O)COC(=O)c1cccc(S(=O)(=O)N2CCCCC2)c1 | – | 130 nM [falling, single point] | –
CN(N=Nc1cccc([N+](=O)[O-])c1)c1ccccc1 | 79.6 | – | 29100 nM [rising, single point]
CCCn1c(SCc2nc(-c3cccs3)no2)nnc1-c1ccncc1 | 0.334 | 1300 nM [rising, partial curve] | 2910 nM [rising, partial curve]
O=C(O)CCc1nc2cc3ccccc3cc2[nH]1 | 8.3 | 130 nM [falling, full curve, poor fit] | –
O=C(NCC(c1cccnc1)N1CCOCC1)c1ccco1 (stereo not given) | 1.87 | 651 nM [rising, full curve] | –
CCc1ccc(S(=O)(=O)Nc2nnc(N)s2)cc1 | 5.47 | – | –
Cc1ccccc1CCNC(=O)CCn1nc(C)c2c(C)n(-c3ccccc3)nc2c1=O | -15.8 | 82 nM [rising, full curve, poor fit] | –
COc1ccc(NC2=C(Cl)C(=O)N(CCc3ccccc3)C2=O)c(OC)c1 | -31.4 | – | 6510 nM [falling, single point]
CNC(=O)c1ccc(Nc2nc(-c3ccccc3)nc3ccccc23)cc1 | 16.2 | 29100 nM [falling, single point] | –
COc1ccc(S(=O)(=O)N2CCN(C(=O)c3cc(C)oc3C)CC2)cc1OC | -9.35 | – | 184 nM [falling, full curve, poor fit]
O=C(c1ccc2ccccc2c1)N1CCN(Cc2ccccc2)CC1 | – | – | 6510 nM [rising, partial curve, poor fit]
COC(=O)c1sccc1NC(=O)c1c(Cl)cnn1C | 14.7 | 1840 nM [rising, full curve] | –
CCOC(=O)c1ccc(NC(=O)c2c(O)c3ccccc3n(C)c2=O)cc1 | 0.884 | 920 nM [rising, full curve] | –
CC(CN1CCCC1)OC(=O)c1ccc(Cl)cc1Cl (stereo not given) | -1.59 | – | –
CCOc1cccc(C2/C(=C(/O)c3ccc4c(c3)CC(C)O4)C(=O)C(=O)N2CCN2CCOCC2)c1 (stereo not given) | 28.1 | 25900 nM [rising, single point] | –
Cc1ccc(S(=O)(=O)N(C)c2ccc(OCC(=O)OCc3c(C)noc3C)cc2)cc1 | -65.7 | 14600 nM [falling, partial curve] | 10300 nM [falling, partial curve]
Clc1nc2sccn2c1/C=N/n1cnc2ccccc21 | -14.7 | – | –
CCOC(=O)Cn1c(=O)c2c(nc3n2CCCCN3c2ccc(C)cc2)n(C)c1=O | 19 | 6510 nM [rising, single point] | –
Cc1ccc(CC2CC(=O)N(c3ccc(Cl)cn3)C2=O)cc1 (stereo not given) | -8.93 | 731 nM [falling, full curve] | –
COC(=O)c1c(NC(=O)CSc2nnnn2C)sc(C)c1C | 2.31 | 164 nM [rising, full curve, poor fit] | –

Compound | cell number change [%] | AC50 [1] | AC50 [2]
CCn1c(CNC(=O)c2cc(OC)c(OC)c(OC)c2)cc2ccccc21 | -25.5 | 29100 nM [falling, single point] | –
Cc1ccc(C(=O)N2CCCc3ccccc32)c(F)c1F | -25.5 | – | –
CC1CCCN(CCCNC(=O)c2ccc(CS(=O)(=O)Cc3cccc(Cl)c3)o2)C1 (stereo not given) | -6.08 | 29100 nM [falling, single point] | –
COc1ccc(C(=O)Nc2ccc(-c3nnn(CC(=O)N4CCN(C(=O)c5ccco5)CC4)n3)cc2)cc1 | 21.6 | – | 1840 nM [rising, full curve, poor fit]
COC(=O)C(C#N)c1nc2ccccc2nc1N1CCN(Cc2ccc3c(c2)OCO3)CC1 (stereo not given) | 15.2 | – | 2590 nM [rising, single point]
CCCNc1c(NS(=O)(=O)c2ccc(Cl)s2)c(=O)oc2ccccc12 | -13.7 | – | –
C/C(=C\C(=O)N1CCc2ccccc21)C(=O)O | 23.5 | – | –
Cc1ccc2nc(SCC(=O)NCc3ccco3)nc(=O)n2c1 | -27.8 | 32600 nM [falling, single point] | –
CCC(C)NC(=O)/C(=C/c1ccco1)c1ccccc1 (stereo not given) | 1.38 | 580 nM [falling, single point] | –
CCOCC(=O)Nc1nc(-c2ccccc2)c(CC)s1 | 37.4 | – | 18400 nM [rising, single point]
Cc1ccc(C(=O)OCC(=O)NCc2cccs2)s1 | 3 | – | –
COc1ccc(C(c2nnnn2CS(=O)(=O)c2ccc(C)cc2)N2CCN(c3ncccn3)CC2)cc1 (stereo not given) | 21.5 | 23100 nM [rising, partial curve, poor fit] | –
Cc1cc(NC(=O)CSc2nnnn2-c2ccccc2F)no1 | -30.3 | – | 920 nM [falling, full curve, poor fit]
Cc1ccc(Oc2ccc(Cl)cc2N)cc1 | – | 82 nM [falling, single point] | 4.11 nM [falling, full curve, poor fit]
O=S(=O)(c1cnccc1N1CCN(/N=C/c2ccc(Br)cc2)CC1)N1CCCCC1 | 126 | 116 nM [rising, full curve, poor fit] | 3260 nM [rising, partial curve, poor fit]
CN(C)c1ccc(-c2noc(C3CCN(S(=O)(=O)c4cccc(Cl)c4)CC3)n2)cc1 | -12.5 | 1300 nM [rising, full curve] | –
CN(c1ccccc1)c1nc(N)c([N+](=O)[O-])c(Nc2ccc(F)cc2)n1 | 66.7 | – | 32600 nM [rising, single point]
CN1CCN(CCC(=O)N/N=C/c2cc([N+](=O)[O-])ccc2O)CC1 | 9.25 | – | –
O=c1[nH]cc(N=Cc2cc([N+](=O)[O-])ccc2O)c(=O)[nH]1 | 5.22 | 25900 nM [rising, single point] | –
CC1CN(CCOCCSc2ccccc2)CC(C)O1 (stereo not given) | -8.31 | 103 nM [rising, full curve, poor fit] | –

Two compounds from above with just cell number change [%]:
Compound	cell number change [%]
O=c1[nH]cc(N=Cc2cc([N+](=O)[O-])ccc2O)c(=O)[nH]1	5.22
CC1CN(CCOCCSc2ccccc2)CC(C)O1 (stereo not given)	-8.31
